According to US20210228680A1:
No constants are given. Whether binding was seen depends on the method and setting. Binding seen in cells or lysates may run through a third protein. Some results given as binding are weak or reduced against the parent protein; the word gives no strength.

The chains behind the UniProt entries cited, without tags or fusion partners.
UniProt P29351: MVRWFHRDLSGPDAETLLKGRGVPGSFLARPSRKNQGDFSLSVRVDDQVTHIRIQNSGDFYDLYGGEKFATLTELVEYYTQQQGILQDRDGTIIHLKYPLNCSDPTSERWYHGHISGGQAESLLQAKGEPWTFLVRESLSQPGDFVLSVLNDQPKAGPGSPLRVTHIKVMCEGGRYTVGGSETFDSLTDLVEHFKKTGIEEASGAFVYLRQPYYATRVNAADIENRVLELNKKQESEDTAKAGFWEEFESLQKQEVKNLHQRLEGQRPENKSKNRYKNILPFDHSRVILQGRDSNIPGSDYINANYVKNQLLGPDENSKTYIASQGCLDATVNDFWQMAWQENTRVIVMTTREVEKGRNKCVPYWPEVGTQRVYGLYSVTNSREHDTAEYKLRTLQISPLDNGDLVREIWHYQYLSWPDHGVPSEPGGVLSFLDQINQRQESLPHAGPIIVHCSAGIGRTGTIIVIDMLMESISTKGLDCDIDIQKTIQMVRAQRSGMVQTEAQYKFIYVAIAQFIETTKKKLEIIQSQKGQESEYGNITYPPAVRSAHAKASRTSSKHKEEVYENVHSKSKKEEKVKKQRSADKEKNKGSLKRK

Molecular target: SHP-1 (mouse) (UniProt P29351)
Assay: co-immunoprecipitation: Siglec G precipitated from CD24Fc-stimulated CD24-/- spleen cells, probed with anti-SHP-1

B1: Siglec G (mouse homologue of human Siglec 10) (receptor, UniProt Q80ZE3 18-688, looked up)
chain: QMESYFLQVQRIVKAQEGLCIFVPCSFSSPEGKWLNRSPLYGYWFKGIRKPSLSFPVATNNKDKVLEWEARGRFQLLGDISKKNCSLLIKDVQWGDSTNYFFRMERGFERFSFKEEFRLQVEALTQKPDIFIPEVLEPGEPVTVVCLFSWTFNQCPAPSFSWMGDAVSFQESRPHTSNYSVLSFIPGLQHHDTELTCQLDFSRMSTQRTVRLRVAYAPRSLAISIFHDNVSVPDLHENPSHLEVQQGQSLRLLCTADSQPPATLSWVLEDQVLSWSSPVGSRTLALELPWVKAGDSGHYTCQAENRLGSQQHTLDLSVLYPPQDLRVTVSQANRTVLEILRNAISLPVLEGQSLCLVCVTYSNPPANVSWAWVTQTLIPIQSSEPGVLELPLVQREHEGEFTCAAQNPLGAQRISLSLSVHYPPQMSSPSCSWEAKGLHCNCSSRAWPAPSLRWRLGEGLLEGNSSNASFTVTFSSLGPWVNSSLSLLQELGPSLWLSCESWNTHGAQTTSVLLLPDKDSATAFSKGAVLGFGITALLALCLIVVIVKTLQKKGTQEEPSRPKLSRGSTILDYINVVPKTRSLARNWKAEPDAPSRSSPLDTHFPKPKKKQKDPHFTYPGCPDPTSSSQVPVSENNPEELHYAALNFSRLRLQETQDPQDTYSDYTEVRVH
B1 was tested, and the binding was “binds”.
